Test results as given in US20260216366A1, “CONJUGATE AND USES THEREOF” (Full-Life Technologies UK Limited, priority 2022, published 2026).
Some results were stated once for a whole list of compounds, not compound by compound.

Tested on: CLDN18.2 HEK293T cells
Test: In vivo SPECT imaging of 111In-labeled CLDN18.2 conjugates
Design: species or system female athymic nude mice
Conditions: compared to the control group
Description: In vivo biodistribution of the CLDN18.2 conjugates was analyzed by SPECT imaging via ^111In labeling. Briefly, the CLDN18.2 conjugates were labeled by ^111In at 30° C. for 60 min and purification by NAP-5 column. followed by analysis of radioactive purity through radio-TLC and radio-HPLC on the same day of labelling. The release criteria for radio-labelled sample was ≥90% radiochemical purity.
For the imaging study, female athymic nude mice (approximately 6-8 weeks old) were each inoculated with 5×10^6 CLDN18.2 HEK293T cells via subcutaneous injection into the shoulder. When the tumor volume reached to about 200 to 300 mm^3, the animal was injected with the labeled conjugate at a dose of 10 MBq/mouse by a single bolus intravenous injection in tail vein. Animals were then subject to whole-body static SPECT followed by CT at different time points under isoflurane anaesthesia. […] In addition, the tumor/kidney ratio was increased around 5-10 folds compared to the control group.

| Structure (SMILES) | increase of tumor/kidney ratio |
| --- | --- |
| O=C(O)CCC(NC(=O)C(CCCCNC(=O)CCCc1ccc(I)cc1)NC(=O)CNC(=O)CCC(C(=O)O)N1CCN(CC(=O)O)CCN(CC(=O)O)CCN(CC(=O)O)CC1)C(=O)NCc1ccc(N=C=S)cc1 (centres unmarked) [L007] | 5-10 folds |
| O=C(O)CN1CCN(CC(=O)O)CCN(C(CCC(=O)NCC(=O)NC(CCCCNC(=O)CCCc2ccc(I)cc2)C(=O)NCc2ccc(N=C=S)cc2)C(=O)O)CCN(CC(=O)O)CC1 (centres unmarked) [L009] | 5-10 folds |
